Test results taken from the supplement of paper PMC3334620.
Over roughly 33,000 sequences, “E-score (-0.5 to 0.5)” has its median near -0.0034; the highest 2% begin near 0.25. This is one part of the list.

biological target: T1, Yap3 (UniProt P38749); assay: PBM E-score (8-mer binding enrichment) (E-score (-0.5 to 0.5)); higher = stronger / more preferred TF binding; conditions: protein concentration: 100 nM; construct: GST-full length
T1 sequence: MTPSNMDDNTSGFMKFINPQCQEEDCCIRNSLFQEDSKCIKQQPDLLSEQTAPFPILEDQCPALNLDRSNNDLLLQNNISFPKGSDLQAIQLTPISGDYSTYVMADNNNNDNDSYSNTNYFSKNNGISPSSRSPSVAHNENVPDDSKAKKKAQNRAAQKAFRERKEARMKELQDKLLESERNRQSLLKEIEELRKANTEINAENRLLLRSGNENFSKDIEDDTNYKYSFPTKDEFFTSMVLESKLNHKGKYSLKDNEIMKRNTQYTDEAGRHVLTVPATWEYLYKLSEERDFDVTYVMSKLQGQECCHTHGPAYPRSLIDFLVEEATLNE
Outline: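 Yeast transcription factors, full-length or as DNA-binding domains, were expressed with a GST tag using PURExpress in vitro transcription/translation. At about 100-200 nM they were applied to universal all-10-mer Agilent arrays, double-stranded by primer extension on fresh or once-stripped slides. Fluorescent anti-GST detected bound protein, and masliner normalised the scans. E-scores for ungapped eight-base words, pooled with reverse complements, came from the Universal PBM Analysis Suite.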

Sequence	PBM E-score
GAGTAGCA	0.0529
CAGACTAC	-0.108
CTTAATTA	0.174
CAACCTTA	0.131
ATAGACTC	-0.227
TCCGTGCA	-0.0352
GTGATGGA	0.049
ATTAAAGA	0.177
ATGTTTGC	-0.0647
TCGTTCCA	-0.14
AGTACTGG	-0.128
ACATCGTA	-0.0454
ACATACGA	0.179
CGTTCCAC	-0.126
TAGTCCAA	-0.111
AGGCCTGG	-0.145
ACACAGCG	0.148
ACCTGGCT	-0.173
AACATGAC	0.245
CGTCGCGA	0.141
GCAGTATA	0.0674
GAGTACGA	-0.0103
GCCATGGA	-0.125
TCGGCTCA	-0.114

Random excerpt: 4 entries already listed.
Sequence	PBM E-score
GCAGTATA	0.0674
GAGTAGCA	0.0529
CGTCGCGA	0.141
TCGGCTCA	-0.114

Further entries:

Sequence	PBM E-score
AGTCCATC	-0.118
GTCGCTTA	0.0677
GTGCCCTA	-0.101
AATCCCAG	0.057
CTAGCGAC	-0.105
TATCGGAA	0.0684
CTAACCAC	0.0836
ACTGCTTC	-0.0537
CGTTTGTC	-0.0669
GATTGCCC	0.0434
GATGCACC	-0.0762
AGGACTAG	-0.118
CGTCAAGC	-0.124
GTCCGTGA	-0.162
CACTCTGC	0.038
CGGGGGCC	-0.405
GGTCGGTA	0.0806
AGACTGAT	0.0259
GTGGACCA	0.0252
AATGTTCA	0.0495
CAAGAAGG	0.0713
AGAAAAAG	0.00052
CTGCCAAG	-0.169
GAAGGCCC	-0.237

Sequence	PBM E-score
CCTTCCCG	-0.249
GCGGGGAA	0.0207
AGGGAAGC	-0.108
TCGAGAAA	0.0318
AGTCAGGA	0.0736
GGTTGTAA	-0.0593
TCCTAGCA	0.0185
CCGAATGC	-0.118
TTCAAGAA	0.1
CGGGCCGA	-0.24
GCAGAAGA	-0.0769
AGACATAA	0.136
CCAGTACG	-0.102
ATTTTATG	0.21
CTACGTGC	-0.0924
CCGTATAG	0.0595
GTCTTTAA	0.0633
CTATTTAA	0.0559
ACTGCTCG	0.0537
TAGGAATA	0.0296
ACATAGCA	0.12
AGTTAAGG	0.127
ATCGCGGG	-0.0233
AGTCTGAG	-0.144

Sequence	PBM E-score
ATTGTTAG	0.153
GTATTCTA	0.109
CTGATGGC	-0.117
ACCAACGC	-0.135
AATTCGCG	0.0991
AGGATAAA	0.121
AGGAAACA	0.176
CCTTCTGC	-0.198
AATTTGTA	0.173
TAGCTCGA	0.022
GACGACCA	0.00521
ACAACATA	0.197
AATCAGCA	0.0716
ACACGACC	-0.0823
GTAGTGCA	0.123
AGACTTGG	-0.103
CCATCACG	0.00365
GGCATCAA	-0.285
CAAATAGG	0.0216
CTGCTCAC	-0.129
CTGTCAAC	0.104
GAACTGTA	0.208
